Reference: patent US9403831B2, “Triazolopyrazine derivative and use thereof” (KOREA RESEARCH INSTITUTE OF CHEMICAL TECHNOLOGY, priority 2013, dated 2016)

Tested on: gastric cancer cell line Hs746T
Experiment: Cancer cell proliferation inhibitory test (SRB or MTS assay, 72 hours)
Assay type: cell-based, human
Settings: read-out: Hs746T IC50; cancer cell (Hs746T) proliferation inhibition, culturing with compound for 72 hours

IC50: ≤ 1 nM and 0.1 nM
Structure (SMILES): CN1CC=C(c2cnc(N3CCO[C@H](Cn4nnc5ncc(-c6cccc(C#N)c6)nc54)C3)nc2)CC1 [Chemical formula 23]

The source holds more than one record for some entries. This is not the full list of results. The source may hold further records. Values given together do not match, cause unknown; some may be repeats, others may stem from another dose, organism or construct than stated.
